Reference: the supplement of paper PMC12823440, “Inhibitors supercharge kinase turnover through native proteolytic circuits” (Nature, 2025)
The list shows a part of the results. The calls rarely recur for the same compound in another form.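 Kinases, fused to nanoluciferase, were expressed in K562 cells; luminescence was measured every 4 h from 2 to 18 h as percent of control (DMSO = 100%, positive control = 0%). A time point is decreased if signal falls significantly (2 sigma). Hits were called by the authors by a rule that is not shown; the count of time points alone does not decide it.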

Molecular target: EGFR_G719S_T790M (UniProt P00533)
Assay: kinase-Nluc reporter destabilization hit call (1 = scored as downregulated) (binary); higher = compound decreases kinase abundance
Conditions: K562; 2-18 h

kinase-Nluc reporter destabilization hit call, inactive:
CC(C)(C)n1nc(Cc2cccc3ccccc23)c2c(N)ncnc21 (10 µM) 0, CC1(C)CC=C(c2nc(C3CC(C)(C)OC(C)(C)C3)ccc2NC(=O)c2nc(C#N)c[nH]2)CC1 [Edicotinib] (2.5 µM) 0, Cc1nc(-c2cnc(NC(C)C)n(C)c2=O)ccc1Oc1ccnc(-c2cnn(C)c2)c1 (2.5 µM) 0, CN(C)C(=O)/C(C#N)=C/c1ccc(-c2nc3cnc4[nH]ccc4c3n2C2CCCCC2)o1 (10 µM) 0, CCCS(=O)(=O)Nc1ccc(F)c(C(=O)c2c[nH]c3ncc(Cl)cc23)c1F (10 µM) 0, CNC(=O)c1cccc(-c2ccc3c(N4CCOC[C@@H]4C)nc(N4CCOC[C@@H]4C)nc3n2)c1 [Vistusertib] (2.5 µM) 0, COCCNCCc1cccc(Nc2ncc3c(n2)-c2ccccc2[C@H](c2ccccc2F)C3)c1 [Derazantinib] (2.5 µM) 0, COc1ccc(COc2ccc(Cc3cnc(N)nc3N)cc2OC)cc1 (10 µM) 0, CC(=O)N1CCN(c2ccc(OCC3COC(Cn4ccnc4)(c4ccc(Cl)cc4Cl)O3)cc2)CC1 (stereo not drawn) [Ketoconazole] (2.5 µM) 0, Cc1ccc(F)c(NC(=O)Nc2ccc(-c3cccc4[nH]nc(N)c34)cc2)c1 [Linifanib] (2.5 µM) 0, NC(=O)c1ccc2nc(-c3ccc(Oc4ccc(Cl)cc4)cc3)[nH]c2c1 (10 µM) 0, CC(C)(C)c1cc(NC(=O)Nc2ccc(-c3cn4c(n3)sc3cc(OCCN5CCOCC5)ccc34)cc2)no1 [Quizartinib] (10 µM) 0, COc1cc2ncn(-c3cc(OCc4ccccc4C(F)(F)F)c(C(N)=O)s3)c2cc1OC (10 µM) 0, CCn1cc(-c2ccnc3[nH]c(-c4cccc(CN(C)C)c4)cc23)c(-c2ccc(NC(=O)N(C)C)cc2)n1 (2.5 µM) 0, C[C@H](CN(C)C)Oc1nc(Nc2cc3cccc(Cl)c3cn2)cnc1C#N (10 µM) 0, Cc1cccc(Cn2nc(C3CC3)c3c(NC(=O)c4cnc5cc(OCCN6CCN(C)CC6)ccn45)cccc32)n1 (10 µM) 0, COc1ccc2c(C(=O)Nc3ccc(NC(=O)c4nn(C5CCN(C(=O)CC(C)(C)C#N)CC5)c5ccc(F)cc45)cc3Cl)cnn2c1 [Src Inhibitor 3] (2.5 µM) 0, CN1CCN(c2ccc(C(=O)Nc3n[nH]c4ccc(Cc5cc(F)cc(F)c5)cc34)c(NC3CCOCC3)c2)CC1 [Entrectinib] (2.5 µM) 0, CCN1CCN(Cc2ccc(C(=O)Nc3ccc(C)c(Oc4ccc5c(c4)CC(=O)N5)c3)cc2C(F)(F)F)CC1 (2.5 µM) 0

Molecular target: EGFR_L718V (UniProt P00533)
Assay: as above
Conditions: K562; 2-18 h

kinase-Nluc reporter destabilization hit call, inactive:
CC(C)(C)n1nc(Cc2cccc3ccccc23)c2c(N)ncnc21 (10 µM) 0, CC1(C)CC=C(c2nc(C3CC(C)(C)OC(C)(C)C3)ccc2NC(=O)c2nc(C#N)c[nH]2)CC1 [Edicotinib] (2.5 µM) 0, Cc1nc(-c2cnc(NC(C)C)n(C)c2=O)ccc1Oc1ccnc(-c2cnn(C)c2)c1 (2.5 µM) 0, CN(C)C(=O)/C(C#N)=C/c1ccc(-c2nc3cnc4[nH]ccc4c3n2C2CCCCC2)o1 (10 µM) 0, CCCS(=O)(=O)Nc1ccc(F)c(C(=O)c2c[nH]c3ncc(Cl)cc23)c1F (10 µM) 0, CNC(=O)c1cccc(-c2ccc3c(N4CCOC[C@@H]4C)nc(N4CCOC[C@@H]4C)nc3n2)c1 [Vistusertib] (2.5 µM) 0, COCCNCCc1cccc(Nc2ncc3c(n2)-c2ccccc2[C@H](c2ccccc2F)C3)c1 [Derazantinib] (2.5 µM) 0, COc1ccc(COc2ccc(Cc3cnc(N)nc3N)cc2OC)cc1 (10 µM) 0, CC(=O)N1CCN(c2ccc(OCC3COC(Cn4ccnc4)(c4ccc(Cl)cc4Cl)O3)cc2)CC1 (stereo not drawn) [Ketoconazole] (2.5 µM) 0, Cc1ccc(F)c(NC(=O)Nc2ccc(-c3cccc4[nH]nc(N)c34)cc2)c1 [Linifanib] (2.5 µM) 0, NC(=O)c1ccc2nc(-c3ccc(Oc4ccc(Cl)cc4)cc3)[nH]c2c1 (10 µM) 0, CC(C)(C)c1cc(NC(=O)Nc2ccc(-c3cn4c(n3)sc3cc(OCCN5CCOCC5)ccc34)cc2)no1 [Quizartinib] (10 µM) 0, COc1cc2ncn(-c3cc(OCc4ccccc4C(F)(F)F)c(C(N)=O)s3)c2cc1OC (10 µM) 0, CCn1cc(-c2ccnc3[nH]c(-c4cccc(CN(C)C)c4)cc23)c(-c2ccc(NC(=O)N(C)C)cc2)n1 (2.5 µM) 0, C[C@H](CN(C)C)Oc1nc(Nc2cc3cccc(Cl)c3cn2)cnc1C#N (10 µM) 0, Cc1cccc(Cn2nc(C3CC3)c3c(NC(=O)c4cnc5cc(OCCN6CCN(C)CC6)ccn45)cccc32)n1 (10 µM) 0, COc1ccc2c(C(=O)Nc3ccc(NC(=O)c4nn(C5CCN(C(=O)CC(C)(C)C#N)CC5)c5ccc(F)cc45)cc3Cl)cnn2c1 [Src Inhibitor 3] (2.5 µM) 0, CN1CCN(c2ccc(C(=O)Nc3n[nH]c4ccc(Cc5cc(F)cc(F)c5)cc34)c(NC3CCOCC3)c2)CC1 [Entrectinib] (2.5 µM) 0, CCN1CCN(Cc2ccc(C(=O)Nc3ccc(C)c(Oc4ccc5c(c4)CC(=O)N5)c3)cc2C(F)(F)F)CC1 (2.5 µM) 0
